From PubChem BioAssay AID2417 (National Center for Advancing Translational Sciences (NCATS), 2010)
Screen size: about 140,000 compounds; about 4,300 (3.1%) were called active. The inconclusive results got no clear call from the source; some entries with a clear call stand among them for comparison.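 How the source made its calls: active means readout at or below -70, meaning at least 70% loss of cells showing the perinucleolar compartment, a nuclear body marking cancer cells; inconclusive means readout between -30 and a set limit; inactive means the rest.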

Assay: High Content Assay for Compounds that inhibit the Assembly of the Perinucleolar Compartment;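 further: plate controls were DMSO wells for no effect and camptothecin positive control wells for full effect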
Conditions: PC3M PTB-GFP, PNC prevalence imaging, 16 h; at 10 µM; hits give low values
In short: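 Compounds are pinned in duplicate onto adhered PC3M cells stably expressing GFP-tagged PTB and incubated 16 h at 37 C. Cells are then fixed, nuclei stained with Hoechst, and PNC-positive cells counted.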

Compound	activity change (PNC), negative = inhibition
O=C(NCCc1ccccc1)/C(=C\c1ccc([N+](=O)[O-])cc1)NC(=O)c1ccc(Br)cc1	inconclusive: -44.8%
Cc1ccc(C)c(NC(=O)C2CCCN2/C=C/C(=O)C(F)(F)F)c1 (configuration not stated)	inconclusive: -44.6%
Cc1ccc(NC(=O)CN2C(=O)N/C(=C/c3ccc(C)o3)C2=O)cc1	inconclusive: -33.7%
CN(C)[C@@H]1CCC[C@@H]1OC(=O)C(c1ccccc1)c1ccccc1	inconclusive: -56.7%
CC(C)Cc1nc2oc3c(=O)[nH]cnc3c2c2c1CCCC2	inconclusive: -79%
CC1(C)CC(C)(c2ccc(O)cc2O)N(c2cccc(Cl)c2)C(=S)N1 (configuration not stated)	inconclusive: -44.4%
CCSc1nc2c(c(=O)[nH]1)C(c1ccncc1)C(C(=O)OC)=C(C)N2 (configuration not stated)	inconclusive: -33.4%
Cc1cccc(C(=O)NCCc2n[nH]c(=S)n2C)c1	inconclusive: -35.6%
COc1ccc(Oc2c(C)oc3c(CN4CCOCC4)c(O)ccc3c2=O)cc1	inactive: 58.3%
O=C(NCc1ccccc1)C1CC2CCCC(C1)C2=O (configuration not stated)	inconclusive: -43.6%
CC(=O)NC1C(Oc2ccc(C)cc2)OC2COC(c3ccco3)OC2C1O (configuration not stated)	active: -119%
Cc1ccc(-c2nc3nc4ccccc4nc3n2Cc2ccco2)cc1	inconclusive: -61.5%
NCC[C@H](O)C(=O)N[C@@H]1C[C@H](N)[C@@H](O[C@H]2O[C@H](CN)[C@@H](O)[C@H](O)[C@H]2O)[C@H](O)[C@H]1O[C@H]1O[C@H](CO)[C@@H](O)[C@H](N)[C@H]1O	inconclusive: -37.9%
C=CCOc1ccc2cccc(/C=N/NC(=O)c3cc4cc([N+](=O)[O-])ccc4s3)c2c1	inconclusive: -61%
CCNS(=O)(=O)c1cccc(C(=O)c2c(C)cc3ccccn23)c1	active: -90.3%
Cn1c(=O)[nH]c(=O)c2c1nc(N1CCCCC1)n2CCCSc1nc2ccccc2s1	inactive: 131%
COc1cccc(CC(NC(C)=O)C(=O)NC2CCN(S(=O)(=O)c3cccc4ccccc34)CC2)c1 (configuration not stated)	inconclusive: -76%
Cc1ccc(-n2ncc3c(=O)n(CC(=O)NCc4ccco4)cnc32)cc1	active: -100%
COc1cccc2cc(C(N)=O)/c(=N/NC(=O)COc3ccc(Cl)cc3)oc12	inactive: -9.94%

13 structures already listed, arranged by number of heavy atoms, low to high.
Compound	activity change (PNC), negative = inhibition
Cc1cccc(C(=O)NCCc2n[nH]c(=S)n2C)c1	inconclusive: -35.6%
O=C(NCc1ccccc1)C1CC2CCCC(C1)C2=O (configuration not stated)	inconclusive: -43.6%
CC(C)Cc1nc2oc3c(=O)[nH]cnc3c2c2c1CCCC2	inconclusive: -79%
Cc1ccc(C)c(NC(=O)C2CCCN2/C=C/C(=O)C(F)(F)F)c1 (configuration not stated)	inconclusive: -44.6%
Cc1ccc(NC(=O)CN2C(=O)N/C(=C/c3ccc(C)o3)C2=O)cc1	inconclusive: -33.7%
Cc1ccc(-c2nc3nc4ccccc4nc3n2Cc2ccco2)cc1	inconclusive: -61.5%
Cc1ccc(-n2ncc3c(=O)n(CC(=O)NCc4ccco4)cnc32)cc1	active: -100%
COc1cccc2cc(C(N)=O)/c(=N/NC(=O)COc3ccc(Cl)cc3)oc12	inactive: -9.94%
COc1ccc(Oc2c(C)oc3c(CN4CCOCC4)c(O)ccc3c2=O)cc1	inactive: 58.3%
Cn1c(=O)[nH]c(=O)c2c1nc(N1CCCCC1)n2CCCSc1nc2ccccc2s1	inactive: 131%
O=C(NCCc1ccccc1)/C(=C\c1ccc([N+](=O)[O-])cc1)NC(=O)c1ccc(Br)cc1	inconclusive: -44.8%
COc1cccc(CC(NC(C)=O)C(=O)NC2CCN(S(=O)(=O)c3cccc4ccccc34)CC2)c1 (configuration not stated)	inconclusive: -76%
NCC[C@H](O)C(=O)N[C@@H]1C[C@H](N)[C@@H](O[C@H]2O[C@H](CN)[C@@H](O)[C@H](O)[C@H]2O)[C@H](O)[C@H]1O[C@H]1O[C@H](CO)[C@@H](O)[C@H](N)[C@H]1O	inconclusive: -37.9%

Additional records.

Compound	activity change (PNC), negative = inhibition
CCOC(=O)C1=C(C)NC(C)=C(C(=O)OCC)C1c1cc2ccc(C)cc2[nH]c1=O	active: -111%
Cc1oc(-c2cccs2)nc1CSCC(=O)NC1CC1	inconclusive: -42.4%
COc1cc(S(=O)(=O)NCC2CCCO2)ccc1Br (configuration not stated)	active: -112%
O=C(C1=NN[C@@H]2C(=O)N(c3cccc(F)c3)C(=O)[C@H]12)c1ccc2ccccc2n1	inconclusive: -39.3%
Cc1cc(C)c2[nH]c(=O)c(CN(CC3CCCO3)C(=S)Nc3ccccc3)cc2c1 (configuration not stated)	inactive: 2.98%
CCC(=O)/C=C1/Sc2ccc(OC)cc2N1CC	inactive: 2%
Cc1ccc(Nc2c(N)c(=O)oc3ccccc23)cc1	inconclusive: -30.3%
COc1cc(SC)ccc1C(=O)Nc1ccc(C)cc1C	inconclusive: -36.4%
CCC[N+](CC#Cc1ccccc1)(CCC)CC(=O)c1ccc(Cl)cc1	inactive: 22.9%
CCCC(=O)c1cn(CC(=O)OC)c2ccccc12	inconclusive: -75.8%
CC1(C)CC(C(CCN(Cc2ccccc2)C(=O)c2ccco2)c2ccc(F)cc2)CCO1 (configuration not stated)	inactive: 2.25%
CN1C(=O)c2ccc(C(=O)NCc3ccccc3)cc2C1=O	active: -92.4%
Cc1onc(-c2ccccc2Cl)c1C(=O)OCN1C(=O)c2ccccc2C1=O	inactive: 14.5%
CC1CCN(C(=O)C2CCN(CCCc3ccccc3)CC2)CC1	inactive: -6.03%
Cn1nc(C(F)(F)F)c(C(=O)Nc2ccc(F)cc2F)c1Sc1ccc(Cl)cc1	inactive: 55.3%
Cc1ccc(-c2cc(C(F)(F)F)n3ncc(C(=O)N4CCN(C)CC4)c3n2)cc1	active: -100%
Cc1cccc(NC(=O)CCCCCN2C(=O)c3ccccc3C2=O)n1	inactive: 36.5%
CCOC(=O)c1nnn(-c2nonc2N)c1CN1CCc2ccccc2C1	active: -83.2%
O=C(COC(=O)c1ccc(Cl)nc1)NCc1ccc2c(c1)OCO2	inconclusive: -64.6%

Compound	activity change (PNC), negative = inhibition
COC(=O)c1ccc(C(=O)OC)c(NC(=S)N2CCCCC2C)c1 (configuration not stated)	inconclusive: -56.6%
C#CC(=O)N(c1ccc(OC)c(OC)c1)C(C(=O)NC1CCCC1)c1cccs1 (configuration not stated)	inconclusive: -57.6%
O=C(COc1ccccc1)NC(=S)Nc1cccc(NC(=O)c2ccccc2Cl)c1	inactive: 29.6%
COc1cc(C(=O)NCCC(=O)NCCc2ccc(Cl)cc2)cc(OC)c1OC	inconclusive: -50.8%
COC(=O)c1ccccc1CCC(C)=O	inactive: -10.2%
CCOC(=O)N1c2ccccc2C=CC1OCC (configuration not stated)	inactive: 0.635%
CCOC(=O)c1ccc(NS(C)(=O)=O)cc1	inactive: 13.3%
Cc1cc(NC(=O)CSc2nnc(COc3ccccc3)n2Cc2ccco2)no1	inconclusive: -49.3%
O=C(c1ccco1)N(Cc1cccs1)C1CCS(=O)(=O)C1 (configuration not stated)	inactive: 38.5%
COc1ccc(Br)cc1S(=O)(=O)N1CCCC1	inconclusive: -35.5%
Cc1ccc(C(=O)NCCCC(=O)O)o1	inconclusive: -34.6%
COc1ccc(-c2cc(C#N)nc(N3CCN(C)CC3)n2)cc1	inconclusive: -50.1%
COc1ccc(C2N(C(=O)N3CCOCC3)CCN2S(=O)(=O)c2ccc(C)cc2)cc1 (configuration not stated)	inconclusive: -73.5%
CCOC(=O)C1CCN(C(=O)CSc2ccc(Cl)cc2)CC1	active: -100%
Cn1ncc(Br)c1C(=O)NC12CC3CC(CC(C3)C1)C2	inconclusive: -54.4%
O=C1OCCC1Sc1nnc(-c2ccco2)o1 (configuration not stated)	active: -100%
COc1cccc(OC)c1C(=O)n1nc(C)cc1C	inconclusive: -65.7%
CCCNS(=O)(=O)c1ccc(OCC(=O)N2CCOCC2)cc1	active: -100%
CCCC(C)C(=O)Nc1cccc(NC(C)=O)c1 (configuration not stated)	inconclusive: -40.2%
